# Measurements as given in PubChem BioAssay AID504444 (National Center for Advancing Translational Sciences (NCATS), 2011).
# The campaign covered roughly 360,000 compounds. About 7,500 (2.1%) were called active. This list was built around the results that the source calls inconclusive (neither active nor inactive); the mix of calls is not that of the screen. Calls follow the shape of the dose curve; as a rule, active = well fitted inhibition curve with a large enough effect; inconclusive = small, poorly fitted or top-dose-only effect, or effect the other way; inactive = flat fitted curve, though single readings scatter. Potencies beside an inconclusive call are fits to weak or partial responses and may not hold up.
# Test: Nrf2 qHTS screen for inhibitors; also: nearly all actives have a fitted effect of over 60% in size
# Conditions: A549 ARE-Fluc reporter, luciferase luminescence, 18-24 h; activity change, negative = inhibition: at 46 µM (top of the series)
# Summary of the method: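 Cells were seeded and rested 2 h, then exposed to compounds for 18-24 h. CellTiter-Fluor was read first as a viability measure. BugLite was added 15 min before the final luminescent read of ARE-luciferase activity in A549 cells.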
# % is scaled to controls: 0 for no effect and ±100 for the full control effect; potency is read from the fitted curve at half-maximal effect.
Compound,Potency,"activity change, negative = inhibition"
Clc1ccc(-n2ncc3c(NCc4cccs4)ncnc32)cc1,"inconclusive: 8.2 µM [activator, partial curve]",
C[C@@H](C(=O)Nc1ccc2ccccc2c1)[C@H]1C[C@]1(C)[C@H](NC(=O)c1cccnc1)c1ccccc1,"inconclusive: 32.6 µM [falling, single point]",
O=C(c1cccs1)N1CCN(c2nc3ccccc3s2)CC1,"inconclusive: 25.9 µM [falling, single point]",
Cc1cc(OCC(=O)Nn2cnnc2)c(C)cc1Br,,inactive: -5.69%
COC1=CC(=O)CC(C)C12Oc1c(Cl)c(OC)cc(OC)c1C2=O (stereo not drawn),"inconclusive: 18.4 µM [falling, single point]",
CCOc1ccc(NC(=O)c2cccs2)c([N+](=O)[O-])c1,"inconclusive: 1.84 µM [activator, full curve]",
CCOC(=O)c1nn(-c2ccc(C)cc2)c(=O)cc1OCC(=O)Nc1ccc(OC)cc1,,inactive: -11%
CC(C)(C)c1ccc(C(=O)Nc2ccc(S(=O)(=O)Nc3cnc4ccccc4n3)cc2)cc1,"inconclusive: 29.1 µM [falling, single point]",
CCn1ncc(Br)c1C(=O)Nc1cccc(F)c1,,inactive: -8.68%
CC1CCCC(C)N1/N=C/c1ccc([N+](=O)[O-])cc1 (stereo not drawn),"inconclusive: 29.1 µM [activator, single point]",
Cc1ccc(C)c(Sc2ccc(NC(=O)CCl)cc2)c1,,inactive: 7.24%
COc1ccc(Cl)cc1NC(=O)N1CCN(CCc2ccccc2)CC1,"inconclusive: 32.6 µM [falling, partial curve, poor fit]",
CCN(CC)S(=O)(=O)c1cccc(C(=O)NNC(=O)c2ccc3[nH]c(=O)c(=O)[nH]c3c2)c1,"inconclusive: 7.31 µM [falling, single point]",
CCN(Cc1nc2ccccc2c(=O)[nH]1)Cc1nc2ccsc2c(=O)[nH]1,"inconclusive: 0.116 µM [activator, full curve, poor fit]",
CCOc1ccc(S(=O)(=O)N(CC)CC(=O)NCc2ccco2)cc1C,"inconclusive: 29.1 µM [falling, single point]",
C=CC(=O)Nc1cccc(CN2C(=O)N(c3cc(OC)cc(OC)c3)Cc3cnc(NCCCCN(CC)CC)nc32)c1,,inactive: -8.28%
CCC(=O)Nc1nc2ccccc2n1Cc1ccc(Cl)cc1,active: 20.6 µM,
COc1cccc(OCc2nc3ccccc3c(=O)n2N)c1,"inconclusive: 7.31 µM [activator, partial curve]",
COc1c(O)ccc(/C=N/NC(=O)c2ccc3c(c2)OCCO3)c1[N+](=O)[O-],active: 5.17 µM,
Nc1ccccc1SCC(=O)Nc1nc(-c2ccccc2)cs1,"inconclusive: 8.2 µM [falling, partial curve, poor fit]",
O=C(/C=C/c1c[nH]c2ccccc12)c1cccc2ccccc12,"inconclusive: 23.1 µM [activator, partial curve, poor fit]",
COc1ccc(N2C(=O)c3ccccc3NC2c2ccc(OC)c(CN3CCOCC3)c2)cc1 (stereo not drawn),"inconclusive: 9.2 µM [activator, partial curve, poor fit]",

Compound,Potency,"activity change, negative = inhibition"
CC(=O)c1cccc(NC(=O)CSc2n[nH]c(=O)n2C2CC2)c1,"inconclusive: 0.517 µM [activator, full curve, poor fit]",
Cc1ccc(S(=O)(=O)/C(C#N)=C/c2c[nH]c3ccccc23)cc1,active: 16.4 µM,
CCN(CC)CCNC(=O)c1cc2c(=O)n(C)c3cc(Cl)ccc3c2s1,"inconclusive: 11.6 µM [activator, partial curve]",
COc1ccccc1C(=O)Nc1ccc(N2CCCCC2)cc1,"inconclusive: 8.2 µM [activator, partial curve]",
CC(=O)NC12CC3CC(C1)CC(C(=O)OCC(=O)NC(=O)c1cccn1C)(C3)C2,"inconclusive: 20.6 µM [activator, single point]",
CCOC(=O)C1CCN(S(=O)(=O)c2ccc3c4c(cccc24)C(=O)N3)CC1,"inconclusive: 7.31 µM [activator, partial curve, poor fit]",
CCOc1ccc(NC(=O)C2C3CC/C=C\CCC32)cc1 (stereo not drawn),"inconclusive: 29.1 µM [activator, single point]",
O=C1CSC2(C(=O)N(Cc3cccc(F)c3)c3ccccc32)N1c1cccc(C(F)(F)F)c1 (stereo not drawn),active: 23.1 µM,
Cc1oc(-c2ccc(Cl)cc2)nc1CS(=O)CC(=O)NCc1ccccn1 (stereo not drawn),,inactive: 9.62%
Cc1ccc(C(=O)O/N=C\c2ccc(N3CCCCC3)c([N+](=O)[O-])c2)cc1,,inactive: -26.3%
CC(=O)N1c2ccc(S(=O)(=O)NCC3CCC(C(=O)NC4CCCCC4C)CC3)cc2CC1C (stereo not drawn),"inconclusive: 14.6 µM [falling, partial curve, poor fit]",
CC(C)c1ccc(S(=O)(=O)NC2CCCC2)cc1,"inconclusive: 25.9 µM [falling, single point]",
Cc1ccc(Cn2c(CO)cnc2SCC(=O)Nc2ccc(C)c(Cl)c2)cc1,"inconclusive: 18.4 µM [falling, single point]",
O=C1C(Nc2ccccc2)=C/C(=N/S(=O)(=O)c2cccs2)c2ccccc21,active: 8.2 µM,
COc1ccc(Nc2cc3n(c(=O)n2)CCc2cc(OC)c(OC)cc2-3)cc1,,inactive: -26.6%
Oc1ccccc1N1CCN(c2nc(-c3cccs3)nc3ccccc23)CC1,"inconclusive: 29.1 µM [falling, single point]",
Cc1ccc(C(=O)CSc2nnc(CNc3ccc(C)cc3C)n2Cc2ccco2)cc1,active: 23.1 µM,
CCn1cc(C(=O)N2CCN(c3ccccc3)CC2)c(=O)c2cc(S(=O)(=O)N3CCOCC3)ccc21,"inconclusive: 29.1 µM [falling, single point]",
O=C(Nc1ccc(N2CCOCC2)cc1N1CCOCC1)c1ccco1,"inconclusive: 3.26 µM [falling, full curve, poor fit]",
Cc1cc2oc(=O)cc(Cn3ncc(Cl)c(Cl)c3=O)c2cc1Cl,"inconclusive: 29.1 µM [falling, single point]",
CCCCOc1ccc(-c2csc(N)n2)cc1[N+](=O)[O-],"inconclusive: 5.8 µM [activator, single point]",

# Entries shown so far containing bromine (two):
Compound,Potency,"activity change, negative = inhibition"
Cc1cc(OCC(=O)Nn2cnnc2)c(C)cc1Br,,inactive: -5.69%
CCn1ncc(Br)c1C(=O)Nc1cccc(F)c1,,inactive: -8.68%
